# Results of single-concentration screens

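Assay of Toxoplasma gondii numbers, read through their beta-galactosidase reporter with a colour substrate. Compounds at 50 µM. Higher reads as fewer parasites (inferred from which compounds were picked for retests). Size under these conditions: about 18,000 compounds, about 170 of them at 50% or above in at least one test.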

Values are the deposited “Percent Effect”, in %.
The record does not define 0% and 100%; most values in the screen are far below 50% and negative numbers occur (in some assays of this library far below -100).
Compounds were drawn at random from those tested, without regard to their results.

compound	effect
CCC(=O)NCCCN1CCCCCC1	5.333
Cc1nnc(CCNC(=O)CSc2nnc(N)s2)s1	5.554
Cn1cncc1C1CCCCN1 (stereo unspecified)	-9.845
CCCNC(=O)CNC(=O)Cn1nc(C)c(Cl)c1C	1.222
O=C(N[C@H]1C[C@@H]2OCC[C@H]12)c1cc(O)ccc1F	3.188
CN(CC(=O)N1CCSCC1)C(=O)OC(C)(C)C	0.05488
CN(Cc1nc(C2CCOC2)no1)C1CCNCC1 (stereo unspecified)	-6.538
CCNC(=O)c1ccc(-c2ccccc2C(N)=O)s1	-12.31
Oc1ccc(Cl)cn1	-5.791
CC(=O)Nc1c[nH]c(=O)[nH]c1=O	-5.581
CN(Cc1cn(-c2ccc(Cl)c(Cl)c2)nn1)S(C)(=O)=O	-7.827
CC(C)(C)C(=O)N1CCCN(C2CCOC2=O)CC1 (stereo unspecified)	1.816
CS(=O)(=O)N1CCC(Nc2ncc(Br)cn2)CC1	23.38
COC(=O)[C@@H]1CNC[C@H]1C	1.961
NCc1cc2cccnc2cc1Br	-6.2
NC(c1ccccc1)C(F)F (stereo unspecified)	16.32

The last 2 entries again:

compound	effect
NCc1cc2cccnc2cc1Br	-6.2
NC(c1ccccc1)C(F)F (stereo unspecified)	16.32

Data taken from ChEMBL document CHEMBL3988442, “University of Dundee, Small-Polar-MMV Screening Library” (2021).